Data as given in PubChem BioAssay AID504834 (National Center for Advancing Translational Sciences (NCATS), 2011).
The whole screen tested about 320,000 compounds, of which about 22,000 (6.9%) were called active. The shares of active, inactive and inconclusive entries below differ from those in the screen. Calls follow the shape of the dose curve; as a rule, active = well fitted inhibition curve with a large enough effect; inconclusive = small, poorly fitted or top-dose-only effect, or another doubt; inactive = no such curve, though single readings can be large or run the other way. Potencies of inconclusive entries are doubtful fits and often do not repeat.

Experiment: Primary qHTS for delayed death inhibitors of the malarial parasite plastid, 96 hour incubation
Conditions: P. falciparum luciferase reporter growth; series mostly up to 28.7 µM
In short: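 P. falciparum expressing integrated firefly luciferase, in erythrocytes at 2% hematocrit, 0.05% parasitemia, incubated with compounds 96 h at 37 C, 5% CO2. Growth inhibition read as loss of luminescence; two-generation exposure targets delayed-death apicoplast inhibitors.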
Potency is read from the fitted curve at half-maximal effect.

SMILES	Potency
CCCc1cc(C(=O)Nc2cccnc2Cl)no1	active: 11.7 µM
Cc1ccc2c(c1)N(C(=O)CCC(=O)NCCCN1CCOCC1)CC(C)O2 (stereo unspecified)	inactive
O=C(CNc1cccc(S(=O)(=O)N2CCOCC2)c1)Nc1ccccc1F	inactive
CC(C)CC(COCc1cccc(Cl)c1)N1CCN(C(=O)c2ccc(C(F)(F)F)cc2)CCC1=O (stereo unspecified)	active: 7.38 µM
COCCN(C(=O)COc1ccccc1C#N)c1c(N)n(Cc2ccccc2)c(=O)[nH]c1=O	inconclusive: 10.4 µM [inhibitor, partial curve, poor fit]
CN1CCN(S(=O)(=O)c2cccc(C(=O)NCc3ccccc3Cl)c2)CC1	inconclusive: 3.7 µM [inhibitor, single point]
Clc1ccc(C2=NCCN2)cc1	inactive
Cc1ccc(N2CCN(C(=O)c3cc(-c4ccc(F)cc4)[nH]c3C)CC2C)cc1 (stereo unspecified)	inconclusive: 3.7 µM [inhibitor, single point]
COc1cccc(CNC(=O)C2CCN(c3nnc(N4CCCC4=O)s3)CC2)c1	inconclusive: 13.1 µM [inhibitor, single point]
CC(=O)Nc1cc2c(cc1NC(=O)Cn1nc(-c3ccc(F)cc3)ccc1=O)OCCO2	inactive
Cc1cn2c(=O)c(C(=O)N3CCN(c4ccccc4Cl)CC3)cnc2s1	inactive
CCC[N+](CC#Cc1ccccc1)(CCC)CC(=O)c1ccc(Cl)cc1	inconclusive: 7.38 µM [inhibitor, partial curve, poor fit]
COc1ccc(C)cc1S(=O)(=O)Nc1cc2c3c(c1)CCN3C(=O)CC2	inconclusive: 18.5 µM [inhibitor, single point]
CC(C)=C[C@@H]1C[C@H](C)[C@H]2CC[C@H](C)c3c(O)c(O)c(C)c1c32	active: 10.4 µM
COc1cc(SC)ccc1C(=O)Nc1ccc(C)cc1C	inconclusive: 6.57 µM [inhibitor, partial curve, poor fit]
Cc1ccc(Nc2c(N)c(=O)oc3ccccc23)cc1	inactive
CCOC(=O)CN1C(=O)C(C)(C)Oc2ccc(C(=O)NC(C)(C)CC)cc21	inactive
Cc1cc(C)nc(/N=C(/NC(=O)Nc2cccc(Cl)c2)Nc2ccccc2)n1	inconclusive: 11.7 µM [inhibitor, single point]
COc1ccc2c(c1)C(=O)N1[C@H]3c4cc(OC)ccc4OC[C@@H]3[C@H](c3ccccc3)[C@]1(C)C(=O)N2	inconclusive: 18.5 µM [inhibitor, partial curve, poor fit]
OC1CCN(CC(O)C(F)(F)F)CC1 (stereo unspecified)	inconclusive: 1.47 µM [inhibitor, partial curve, poor fit]
Cc1cccn2c(=O)c3cc(C(=O)NCCN4CCOCC4)c(=N)n(Cc4ccc(F)cc4)c3nc12	active: 3.7 µM
CCn1cc(Br)c(C(=O)Nc2ccc(Cl)c(Cl)c2)n1	inactive
O=[N+]([O-])c1ccc(NCCCN2CCOCC2)c([N+](=O)[O-])c1	inactive
Cc1cc(C)c2[nH]c(=O)c(CN(CC3CCCO3)C(=S)Nc3ccccc3)cc2c1 (stereo unspecified)	inactive

3 entries from above in another layout.
SMILES | Potency
CCOC(=O)CN1C(=O)C(C)(C)Oc2ccc(C(=O)NC(C)(C)CC)cc21 | inactive
COc1ccc2c(c1)C(=O)N1[C@H]3c4cc(OC)ccc4OC[C@@H]3[C@H](c3ccccc3)[C@]1(C)C(=O)N2 | inconclusive: 18.5 µM [inhibitor, partial curve, poor fit]
OC1CCN(CC(O)C(F)(F)F)CC1 (stereo unspecified) | inconclusive: 1.47 µM [inhibitor, partial curve, poor fit]

Next compounds:

SMILES	Potency
CCOc1ccc(NC(=O)CSc2nnc(C)n2C2CC2)cc1S(=O)(=O)N1CCCC1	inconclusive: 9.28 µM [inhibitor, single point]
O=C(C1=NN[C@@H]2C(=O)N(c3cccc(F)c3)C(=O)[C@H]12)c1ccc2ccccc2n1	inactive
O=C(N/N=C\C=C\c1ccc([N+](=O)[O-])o1)c1cccs1	inconclusive: 0.415 µM [inhibitor, full curve]
CC(=O)n1c(C=Nc2ccccc2)c(O)c2ccccc21	inconclusive: 18.5 µM [inhibitor, single point]
Cc1ccccc1OCc1n[nH]c(=S)n1-c1ccccc1	inconclusive: 14.7 µM [inhibitor, single point]
O=C(CSc1nc2ncccc2[nH]1)NCc1ccco1	inconclusive: 0.294 µM [inhibitor, full curve, poor fit]
COC(=O)c1cc(=O)n(C2CC2)c(=NC2CC2)s1	inconclusive: 11.7 µM [inhibitor, single point]
COc1cc(S(=O)(=O)NCC2CCCO2)ccc1Br (stereo unspecified)	inactive
CCCCN1C[C@H](Cc2ccccc2)[C@@H](CC(=O)NCc2ccc(OC)cc2)C1=O	inconclusive: 11.7 µM [inhibitor, single point]
Cc1ccnn1CC(=O)N/N=C/c1ccc([N+](=O)[O-])s1	active: 7.38 µM
COc1cc(/C=N/n2nnnc2N)ccc1OCc1c(C)no[n+]1[O-]	inconclusive: 14.7 µM [inhibitor, single point]
CC1CCC(NC(=O)c2cc(S(=O)(=O)N3CCCCC3)ccc2N2CCOCC2)CC1 (stereo unspecified)	inconclusive: 18.5 µM [inhibitor, partial curve, poor fit]
COc1ccc(Cc2nnc(SCC(=O)N3CCCC(C)C3)o2)cc1 (stereo unspecified)	inconclusive: 6.57 µM [inhibitor, single point]
CC1CCN(C(=O)Cn2nnc(-c3cccs3)n2)CC1	inconclusive: 11.7 µM [inhibitor, single point]
COc1ccc(CNC(=O)CN(c2ccc(OC)c(Cl)c2)S(=O)(=O)c2ccc(C)cc2)cc1	inconclusive: 13.1 µM [inhibitor, partial curve, poor fit]
O=C(/C=C/c1ccccc1)Nc1cccc(S(=O)(=O)Nc2ccccc2F)c1	inactive
COc1ccc(NC(=O)c2ccc(N3CCOCC3)nc2)cc1	inconclusive: 16.5 µM [inhibitor, single point]
CC(=C\c1ccco1)/C=C1/SC(=S)N(CC(=O)O)C1=O	inactive
Cc1ccc(-n2ncc3c(=O)n(CC(=O)NCc4ccco4)cnc32)cc1	inconclusive: 9.28 µM [inhibitor, partial curve]
CC(C1CC1)N(C(=O)c1ccccc1O)c1ccccc1 (stereo unspecified)	inconclusive: 9.28 µM [inhibitor, partial curve, poor fit]
Cc1ccc(S(=O)(=O)Nc2cccc(C(=O)N3CCC(C(N)=O)CC3)c2)cc1	inactive
O=C(Cn1[nH]c(=O)c2ccccc2c1=O)Nc1ccc(-c2nnc3n2CCCCC3)cc1	inconclusive: 5.22 µM [inhibitor, partial curve]
CCOc1cc2[nH]c(=S)n(C3CC3)c(=O)c2cc1OCC	inconclusive: 1.04 µM [inhibitor, full curve, poor fit]
CC(C)c1nc2sc(C(=O)O)c(N)c2c2c1CCCC2	active: 13.1 µM

Entries above containing two or more sulfur atoms (2):
SMILES	Potency
CCOc1ccc(NC(=O)CSc2nnc(C)n2C2CC2)cc1S(=O)(=O)N1CCCC1	inconclusive: 9.28 µM [inhibitor, single point]
CC(=C\c1ccco1)/C=C1/SC(=S)N(CC(=O)O)C1=O	inactive

(more compounds)

SMILES	Potency
CCOc1cc(S(=O)(=O)N2CCC(c3nc4ccccc4s3)CC2)c(OCC)cc1S(=O)(=O)N1CCCCC1	inconclusive: 2.62 µM [inhibitor, full curve]
COc1cccc(CC(NC(C)=O)C(=O)NC2CCN(S(=O)(=O)c3cccc4ccccc34)CC2)c1 (stereo unspecified)	active: 11.7 µM
COc1ccc(C(O)Cn2ccsc2=NC(C)=O)cc1 (stereo unspecified)	inactive
Cn1cnc2cc(NCc3cccs3)ccc21	active: 10.4 µM
COc1cc(OC)c(OC)cc1/C=C1\CCC(C2CCCC2)C1=O (stereo unspecified)	inactive
O=C(CO/N=C1\CCCc2nonc21)Nc1ccccc1Cl	inactive
O=C(Cn1cnc2c(nnn2Cc2ccc(Cl)cc2)c1=O)NC1CCCC1	inconclusive: 14.7 µM [inhibitor, single point]
CCSc1nc2c(c(=O)[nH]1)C(c1ccncc1)C(C(=O)OC)=C(C)N2 (stereo unspecified)	inconclusive: 0.415 µM [inhibitor, partial curve, poor fit]
Cc1ccc(C(=O)NNC(=O)c2ccncc2)cc1S(=O)(=O)N1CCCCC1	inconclusive: 18.5 µM [inhibitor, single point]
Nc1ccc2oc(-c3ccc4nc[nH]c4c3)nc2c1	inconclusive: 14.7 µM [inhibitor, partial curve, poor fit]
O=C(Cc1ccc(F)cc1)NCc1cccnc1	inconclusive: 16.5 µM [inhibitor, single point]
Cc1cccc(NC(=O)CN2CCc3cc4c(cc3C2)OCCCO4)c1	inconclusive: 18.5 µM [inhibitor, single point]
CNNC(=S)Nc1cccc(C(F)(F)F)c1	inconclusive: 18.5 µM [inhibitor, single point]
CN(Cc1cnccn1)Cc1nc(Cc2cccc(F)c2)no1	inconclusive: 18.5 µM [inhibitor, single point]
COc1cc(C2Nc3ccccc3NC3=C2C(=O)CC(C)(C)C3)cc(OC)c1OC(C)=O (stereo unspecified)	inconclusive: 16.5 µM [inhibitor, single point]
COc1ccc(C(c2c(N)[nH]c(=S)[nH]c2=O)c2c(N)[nH]c(=S)[nH]c2=O)cc1	inactive
O=C(Nc1c2c(nc3ccccc13)CCCC2)c1ccccc1F	inconclusive: 0.37 µM [inhibitor, full curve, poor fit]
CCc1ccc(-c2cc(N)n(-c3ccccc3)n2)cc1	inactive
C[n+]1ccc(/C=C/c2c[nH]c3ccc(F)cc23)cc1	inconclusive: 0.0928 µM [inhibitor, full curve, poor fit]
C/C(=N\NC(=O)c1c(Cl)c(C)nn1C)c1ccc(NC(=O)C2CCC2)cc1	inconclusive: 8.28 µM [inhibitor, partial curve, poor fit]
CCOc1ccccc1NC(=O)c1ccccc1-c1ccccc1	inconclusive: 1.04 µM [inhibitor, partial curve, poor fit]
COc1ccccc1NC(=O)COC(=O)Cc1ccc(S(=O)(=O)N2CCCCC2)s1	inactive
COc1ccc(S(=O)(=O)N2CCCCC2)cc1NC(=O)c1ccc([N+](=O)[O-])o1	active: 6.57 µM
